Drawing on article PMC6796342, this text covers binding for 1 substance.

By UniProt entry, the sequences of proteins in these tests, tags left out.
UniProt P46937: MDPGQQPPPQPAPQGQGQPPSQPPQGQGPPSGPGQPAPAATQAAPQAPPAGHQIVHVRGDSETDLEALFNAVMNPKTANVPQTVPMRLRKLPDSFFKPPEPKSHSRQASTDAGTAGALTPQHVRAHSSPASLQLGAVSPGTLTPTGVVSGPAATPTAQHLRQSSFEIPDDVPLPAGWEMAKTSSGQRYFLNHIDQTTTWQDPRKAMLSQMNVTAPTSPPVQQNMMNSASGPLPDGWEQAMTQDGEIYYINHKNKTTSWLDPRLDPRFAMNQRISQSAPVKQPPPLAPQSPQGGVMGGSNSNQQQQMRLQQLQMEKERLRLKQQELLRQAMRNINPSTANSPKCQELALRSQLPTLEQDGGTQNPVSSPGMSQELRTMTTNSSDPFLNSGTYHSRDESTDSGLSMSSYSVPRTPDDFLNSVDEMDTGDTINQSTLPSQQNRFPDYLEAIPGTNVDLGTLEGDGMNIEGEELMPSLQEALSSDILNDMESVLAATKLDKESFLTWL

This assay addresses T1, Flag-MEIS2D (UniProt O14770).
T1 sequence: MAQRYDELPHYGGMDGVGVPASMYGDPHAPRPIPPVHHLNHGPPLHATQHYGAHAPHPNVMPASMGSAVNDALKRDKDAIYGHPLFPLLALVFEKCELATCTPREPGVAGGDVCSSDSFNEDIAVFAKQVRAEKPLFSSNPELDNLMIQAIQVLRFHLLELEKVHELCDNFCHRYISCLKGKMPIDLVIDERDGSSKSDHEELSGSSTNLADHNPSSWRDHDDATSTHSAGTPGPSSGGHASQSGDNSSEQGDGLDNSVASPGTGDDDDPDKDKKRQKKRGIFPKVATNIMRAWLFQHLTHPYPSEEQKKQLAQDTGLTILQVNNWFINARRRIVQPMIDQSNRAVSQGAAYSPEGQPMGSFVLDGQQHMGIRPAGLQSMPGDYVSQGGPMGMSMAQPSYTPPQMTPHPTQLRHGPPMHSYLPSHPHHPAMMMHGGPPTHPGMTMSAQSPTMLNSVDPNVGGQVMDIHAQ
Put plainly: co-IP; HCC-LM3 cells transfected with Flag-MEIS2C or Flag-MEIS2D; lysates sequentially immunoprecipitated; immunoblot with CDC73, β-catenin and YAP antibodies.

Results are given in words; binding and its absence hold for the method and conditions named. In cells and extracts the contact can be indirect. Some results given as binding are weak or reduced against the parent protein; the word gives no strength. Tags and fused reporters may be left off the sequences shown.

As for “Yes-associated protein (YAP) (from UniProt P46937 1-504)”, the binding result is “binds”.
